Test results as given in PubChem BioAssay AID2685 (National Center for Advancing Translational Sciences (NCATS), 2010).
This is one part of the list. Shown are side measurements of this screen, not its main read-out; they come without a call. Most of these compounds were active or inconclusive in the main read-out, so they are no random draw. The note in brackets gives the kind of curve behind each potency; many fits are weak.

Experiment: qHTS Assay for Lipid Storage Modulators in Drosophila S3 Cells;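 for cell number change: cells counted by Cell Tracker Red CMTPX staining in the red channel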
Details: BODIPY lipid droplet fluorescence, 18-24 h; for cell number change: measured here: cell count max response, cells fed with added oleic acid
Procedure, shortened: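 Drosophila S3 cells loaded with oleic acid (400 uM, as added) and compounds at several concentrations; lipid droplets imaged by 488-nm laser-scanning cytometry, 500–530 nm intensity and object ratio to cell channel. Percent activity normalized to 20 uM Triacsin C.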

[1] = measured here: lipid fluorescence (Fed channel) AC50, cells fed with added oleic acid
[2] = measured here: cell number channel AC50, cells fed with added oleic acid

SMILES | AC50 [1] | cell number change | AC50 [2]
CCCCn1cc(S(=O)(=O)c2ccccc2)c(=O)c2cc(C)ccc21 | 29.1 µM [rising, single point] | – | –
CCCn1c2ccccc2c2nnc(SCC(=O)Nc3c(C)n(C)n(-c4ccccc4)c3=O)nc21 | – | 0.781% | –
Cc1ccc(OCCC(=O)Nc2ccccc2C(=O)NC2CC2)cc1 | – | 13% | –
COc1cc(NC(=O)CN2CCC(Cc3ccccc3)CC2)c(C)cc1[N+](=O)[O-] | 0.082 µM [falling, full curve, poor fit] | -32.3% | 29.1 µM [falling, single point]
CCCc1ccc2oc(C(=O)NCCc3nc(C(=O)OCC)cs3)c(C)c2c1 | – | -14.1% | –
CCN(c1ccccc1)S(=O)(=O)c1ccc(OC)c(NC(=O)Cc2ccccc2OC)c1 | 0.92 µM [rising, partial curve] | -10.4% | –
Cc1ccc(S(=O)(=O)NC(C(=O)OCC(=O)NC(=O)c2cccn2C)C(C)C)cc1 (stereo not drawn) | 29.1 µM [falling, partial curve] | -34.1% | 0.206 µM [falling, full curve, poor fit]
N#CCOc1nc(N2CCCCC2)nc(N2CCCCC2)n1 | 0.82 µM [rising, full curve, poor fit] | – | –
Cc1cc(C(=O)CN2C(=O)C(=O)N(C)C2=O)c(C)n1-c1cccc(S(=O)(=O)N2CCOCC2)c1 | – | -17.2% | –
CC1CCCCN1C(=O)COC(=O)c1ccc2c(c1)C(=O)N(Cc1ccco1)C2=O (stereo not drawn) | 0.82 µM [falling, full curve, poor fit] | 30.8% | 29.1 µM [rising, single point]
Cc1cccc(N2C(=O)SC(N(CC(=O)O)c3cccc(C)c3)C2=O)c1 (stereo not drawn) | – | -38.5% | 6.51 µM [falling, single point]
CCN(C(=O)c1cc(S(=O)(=O)N2CCCC2)ccc1C)C1CCS(=O)(=O)C1 (stereo not drawn) | 10.3 µM [falling, partial curve] | -10.5% | –
O=C(CCc1ccccc1)Nc1ccccc1C(F)(F)F | 6.51 µM [rising, partial curve] | 30.8% | –
Cc1ccc(C2=NN(C(=O)CCC(=O)O)C(c3cn(-c4ccccc4)nc3-c3ccc(C)cc3)C2)cc1 (stereo not drawn) | 23.1 µM [falling, single point] | -38.6% | 29.1 µM [falling, single point]
CCc1nc(SCC(=O)NNC(=O)c2ccc(C)cc2)c2ccccc2n1 | 29.1 µM [rising, single point] | -4.76% | –
COC(=O)C1CC(c2ccc(Cl)cc2)=NO1 (stereo not drawn) | – | -65.9% | –
O=C(OCC(O)C(O)COC(=O)c1ccccc1)c1ccccc1 (stereo not drawn) | 5.17 µM [falling, single point] | -1.76% | –
O=C1CN(C(=O)NCC(=O)N[C@H](C(=O)O)c2ccccc2)c2ccccc2N1 | 0.731 µM [rising, single point] | -6.27% | 2.91 µM [rising, partial curve, poor fit]
CCOc1cc(/C=N/Nc2ncc(C)c(=O)[nH]2)ccc1O | 6.51 µM [rising, single point] | -1.8% | –
CCOC(=O)c1ccc(NC(=S)Nc2ccccc2)cc1 | 1.3 µM [rising, full curve] | – | 0.82 µM [rising, full curve]

SMILES | AC50 [1] | cell number change | AC50 [2]
Cc1c(NC(=O)COc2cccc(Br)c2)c(=O)n(-c2ccccc2)n1C | – | 13.3% | –
Cc1ccccc1C(=O)NCCNC(=O)c1ccccn1 | 6.51 µM [falling, single point] | 3.81% | –
OCc1nc2ccccc2n1CCc1ccccc1 | – | -15.2% | –
CC(=O)c1c(C)[nH]c(C(=O)OCc2ccc(Br)cc2)c1C | – | 43.4% | 1.46 µM [rising, full curve, poor fit]
COc1ccccc1N1C(=O)C2C(C(=O)c3ccccc3)=NN(c3ccc(Br)cc3)C2C1=O (stereo not drawn) | – | 53.1% | –
CNC(=S)N1CCC(c2nc3ccccc3s2)CC1 | 29.1 µM [falling, single point] | -43.6% | 29.1 µM [falling, single point]
Cc1ccc(CNC(=O)CCCOc2cc(=O)n(C)c3ccccc23)o1 | – | 96.9% | 20.6 µM [rising, single point]
COCCN1C(=O)C(=O)/C(=C(/O)c2cccc(S(=O)(=O)N(C)C)c2)C12C(=O)N(C)c1ccccc12 (stereo not drawn) | – | 6.61% | –
O=C1N=C(N2CCOCC2)S/C1=C\c1ccc(-c2ccccc2Cl)o1 | 1.16 µM [rising, full curve] | -31.8% | 10.3 µM [falling, partial curve]
Cc1ccccc1N(C)C(=O)C1CCCN(c2ncnc3c2nc2n3CCCCC2)C1 (stereo not drawn) | – | 18.5% | –
O=C(c1ccc(Cl)cc1)N1CCN(S(=O)(=O)/C=C/c2ccccc2)CC1 | 1.03 µM [rising, partial curve] | -7.39% | 0.00461 µM [falling, full curve, poor fit]
O=[N+]([O-])c1ccc(S(=O)(=O)c2ccccc2)nc1 | 3.66 µM [falling, full curve] | -35.9% | 6.51 µM [falling, single point]
CC1CCCC/C1=N\NS(=O)(=O)c1ccc(Br)cc1 (stereo not drawn) | 29.1 µM [falling, single point] | -15.4% | –
Cc1ccc(Cn2c(=N)c(C(=O)NCc3ccco3)cc3c(=O)n4ccccc4nc32)cc1 | 29.1 µM [falling, single point] | -22.1% | –
O=C(Nc1ccccc1C(=O)O)c1ncn[nH]1 | 5.8 µM [falling, single point] | 9.3% | –
Cc1cccc(NC(=O)CN2CCN(CC(=O)Nc3ccc(-c4ccccc4)cc3)CC2)c1C | 2.06 µM [falling, full curve, poor fit] | 3.85% | –
Cc1nc(-c2cccs2)sc1C(=O)NN | 29.1 µM [rising, single point] | 19.2% | –
CCOC(=O)Cc1nnc(NC(=O)Nc2ccccc2)s1 | – | 1.47% | –
CC(NC(=O)C(=O)N1CCCCC1)C(c1cccs1)N1CCN(c2ccccc2)CC1 (stereo not drawn) | – | 7.76% | –
